Reference: article doi:10.1101/204172
No constants are given. Whether binding was seen depends on the method and setting. A result given as binding can be weak or reduced; the word gives no strength.

Target: T1, USH1C (harmonin) (UniProt Q9ES64)
T1 sequence: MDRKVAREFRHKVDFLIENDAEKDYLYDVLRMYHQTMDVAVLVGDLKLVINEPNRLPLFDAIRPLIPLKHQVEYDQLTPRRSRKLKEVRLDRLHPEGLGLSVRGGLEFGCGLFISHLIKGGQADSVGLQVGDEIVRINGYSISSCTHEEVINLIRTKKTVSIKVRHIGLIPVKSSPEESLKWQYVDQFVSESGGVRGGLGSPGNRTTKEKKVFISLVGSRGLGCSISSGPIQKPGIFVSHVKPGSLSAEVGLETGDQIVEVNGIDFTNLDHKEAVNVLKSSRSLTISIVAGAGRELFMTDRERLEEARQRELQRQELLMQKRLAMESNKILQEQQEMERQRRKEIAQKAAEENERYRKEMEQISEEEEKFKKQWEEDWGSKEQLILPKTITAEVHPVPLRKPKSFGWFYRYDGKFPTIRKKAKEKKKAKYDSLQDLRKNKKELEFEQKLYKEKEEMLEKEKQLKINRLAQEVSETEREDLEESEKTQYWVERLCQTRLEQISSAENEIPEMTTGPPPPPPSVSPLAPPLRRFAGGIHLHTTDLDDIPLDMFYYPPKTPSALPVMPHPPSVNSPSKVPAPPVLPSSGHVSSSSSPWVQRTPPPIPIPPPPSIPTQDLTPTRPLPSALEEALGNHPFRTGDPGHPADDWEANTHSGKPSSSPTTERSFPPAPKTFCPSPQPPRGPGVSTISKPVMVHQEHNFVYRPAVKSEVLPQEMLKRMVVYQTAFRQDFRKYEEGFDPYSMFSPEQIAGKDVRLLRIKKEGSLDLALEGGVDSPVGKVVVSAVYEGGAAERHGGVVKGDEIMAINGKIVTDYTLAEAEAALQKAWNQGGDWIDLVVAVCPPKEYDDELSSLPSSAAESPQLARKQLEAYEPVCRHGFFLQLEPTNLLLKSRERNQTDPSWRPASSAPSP
Assay: two-hybrid

For “TRPV6, the 33 terminal amino acids with the PDZ-binding interface (PBI) (domain or fragment)”, the binding was “binds”.
